Structures are written as SMILES. Among all 1,200 compounds or so, about 140 (12%) were called active.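 How the source made its calls: active means fitted curve falls past -35% activity change at a dose under twice the top valid dose, in every replicate test; inconclusive means replicate tests disagree on the call; inactive means the rest, including activity in the opposite direction.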 The list lacks most of the strong results.

The nature of this assay: CFTR-F508del correctors, dose response, FRT cells, YFP quenching, cherry-pick (AID 743402).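 Further: compounds act as correctors raising surface CFTR-F508del before acute activation.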 The following applies: FRT CFTR-F508del YFP iodide quenching, 24 h, channel opened with forskolin and a potentiator; at 26 µM (top of the series) unless noted.
Take `COc1ccc([C@H]2C[C@H](O)[C@@H](n3cc(-c4ccc(F)cc4)nn3)CN2Cc2cccs2)cc1`: the activity change, negative = more quenching (active) is inactive: 0%. Consider `Nc1c2c(nc3ccccc13)CCCC2`, for which the activity change, negative = more quenching (active) is inactive: 6.25%.

Take `O=C(c1ccccc1F)N1CC[C@@H]2[C@H](CO)Nc3ccc(Br)cc3[C@@H]21`: the activity change, negative = more quenching (active) is inactive: 9.58%. Under `NC(=S)NN=Cc1nccc2c(N)cccc12` stands inactive: -3.12%.

As to `Cc1ccc(S(=O)(=O)Nc2ccc3c(c2)C(=O)N([C@@H](C)CO)C[C@H](C)[C@H](CN(C)S(=O)(=O)c2ccc(C)cc2)OCCCC[C@@H](C)O3)cc1`, the activity change, negative = more quenching (active) was inactive: -3.12% [at 23.5 µM]. Under `CCC1(C)Cc2ccccc2-c2nc[nH]c(=O)c21` (configuration not stated) stands inactive: -7.69%; under `COc1ccc2[nH]c(C(=O)N/N=C/c3ccc(OC)c(O)c3)cc2c1`, inactive: 0%. Under `C[C@@H]1CN([C@H](C)CO)C(=O)c2cc(NS(=O)(=O)c3ccc(Cl)cc3)ccc2O[C@@H]1CN(C)Cc1ccc(-c2ccccc2)cc1` stands inactive: 20%; under `O=C(c1[nH]ncc1-c1ccc(Cl)cc1)C1CO1` (configuration not stated), inactive: 22.5%.

As to `C[C@@H]1CN([C@@H](C)CO)C(=O)c2cc(NS(=O)(=O)c3ccc(Cl)cc3)ccc2O[C@@H]1CN(C)Cc1ccc(C(F)(F)F)cc1`, the activity change, negative = more quenching (active) is inactive: 5.3% [at 23.5 µM]. Under `COc1ccc(OCC(=O)NNC(=O)CCc2ccccc2)cc1` stands inactive: 12.9%; under `CCOC(=O)c1sc(NC(=O)c2c(CC)noc2C)nc1C`, inactive: 17.9%; under `Cc1ccc(C)c(NC(=O)CSc2nc3c(c(=O)n2C)SC(C)C3)c1` (configuration not stated), inactive: 7.96%. The result for `COc1cc(C(O)CO)ccc1OS(=O)(=O)O` (configuration not stated) reads inactive: 0%; that for `CC1(C(=O)NCc2ccco2)Cc2c(-c3ccc4c(c3)OCO4)ccnc2O1` (configuration not stated), inactive: 3.33%. On to `Cc1ccc(/C=N/NC(=O)c2ccc3ccccc3c2)s1`, for which the activity change, negative = more quenching (active) is inactive: 0%. As to `COc1ccccc1NC1=C(NC(C)=O)C(=O)c2ccccc2C1=O`, the activity change, negative = more quenching (active) was inactive: 6.67%. `C[C@@H]1CN([C@H](C)CO)S(=O)(=O)c2ccc(-c3ccccc3)cc2O[C@H]1CN(C)Cc1ccccn1`: the activity change, negative = more quenching (active) was inactive: 8.74%.

In the case of `CC(=O)NC(c1ccc(Cl)cc1)c1ccc2cccnc2c1O` (configuration not stated), the activity change, negative = more quenching (active) was inactive: 0%. The result for `CCOc1ccc(C(=O)N[C@H](C(=O)Nc2cccc(S(=O)(=O)N3CCCCC3)c2)C(C)C)cc1` reads inactive: 3.33%. Under `CCOC(=O)[C@]12CCCC=C1N(Cc1cccc3ccccc13)C(=O)[C@H](CC(=O)NCc1cccc(C(F)(F)F)c1)C2` stands inactive: -7.14%; under `COc1ccccc1C(=O)Nc1onc(C)c1C#N`, inactive: 6.25%. Under `COCC(=O)N1C[C@@H]2[C@H](c3ccccc31)[C@H](CO)N2Cc1ccc(OC)cc1` stands inactive: 5.3%; under `Nc1c(C(=O)c2ccco2)oc2ccccc12`, inactive: 3.85%.

In the case of `CCCC(=O)NC(c1ccc(C(C)C)cc1)c1ccc2cccnc2c1O` (configuration not stated), the activity change, negative = more quenching (active) is inactive: 22.3%. As for `CC(C)c1cccc(-c2csc(C(O)c3ccco3)n2)c1` (configuration not stated), the activity change, negative = more quenching (active) is inactive: 0%. The result for `COc1ccc(S(=O)(=O)N2CC[C@@H]3[C@@H](CO)N(C)c4ccc(-c5ccc(F)cc5)cc4[C@@H]32)cc1` reads inactive: -13.4%. Take `COc1ccc(S(=O)(=O)N2CC[C@@H]3[C@@H](CO)Nc4ccc(-c5ccc(C#N)cc5)cc4[C@@H]32)cc1`: the activity change, negative = more quenching (active) was inactive: -3.12%. Under `Cc1cccc(N(C)S(=O)(=O)c2ccc(-c3cc(C)no3)s2)c1` stands inactive: -7.96%. The result for `Cc1cc(C(=O)N/N=C/c2ccc3c(c2)OCO3)c2ccccc2n1` reads inactive: 6.67%; that for `CCOC(=O)N1CCN(C(=O)C2CCC(=O)N(CCCN3CCCC3=O)C2)CC1` (configuration not stated), inactive: 11.9%. With `COc1ccc(C2=Nn3c(nnc3-c3ccccc3F)SC2)cc1OC1CCOC1` (configuration not stated), the activity change, negative = more quenching (active) was inactive: -10%. In the case of `CCOc1ccc(C(=O)COC(=O)Cc2n[nH]c(=O)c3ccccc23)cc1`, the activity change, negative = more quenching (active) is inactive: 0%. On to `CN(c1ccc(O)cc1)c1nc(-c2cccs2)cs1`, for which the activity change, negative = more quenching (active) is inactive: -12.9%. The result for `CCCC(=O)Nc1ccc2c(c1)nc(CN1CCN(C(=O)OCC)CC1)n2CC` reads inactive: 10%. The result for `COc1cc(OC)cc(C(=O)OCC(=O)NC(c2ccccc2)c2ccccc2)c1` reads inactive: 3.33%. Under `COc1ccc(CNC(=O)c2c(C)oc3c2C(=O)c2ccccc2C3=O)cc1` stands inactive: -29%. Consider `COc1ccc(CN(C)C[C@H]2OCCCC[C@H](C)Oc3ccc(NC(=O)Nc4ccc(C(F)(F)F)cc4)cc3C(=O)N([C@H](C)CO)C[C@H]2C)cc1`, for which the activity change, negative = more quenching (active) is inactive: 3.57%. Under `CN(C)CCCN1c2ccccc2Sc2ccccc21` stands inactive: 10%.

Take `COc1ccc(CCNc2ncnc3c2oc2ccccc23)cc1OC`: the activity change, negative = more quenching (active) is inactive: -3.57%.

As for `Cn1cccc1/C=C1\SC(=Nc2ccc(O)cc2)NC1=O`, the activity change, negative = more quenching (active) is inactive: -15.6%.

As to `Cc1ccc(/C=N/NC(=O)C2COc3ccccc3O2)s1` (configuration not stated), the activity change, negative = more quenching (active) is inactive: -12.5%.

For the origin of these results see PubChem BioAssay AID743402 (Broad Institute, 2014).
